Paper PMC2825241, “Uptake of purines in Plasmodium falciparum-infected human erythrocytes is mostly mediated by the human Equilibrative Nucleoside Transporter and the human Facilitative Nucleobase Transporter” (2010)

Target: human facilitative nucleobase transporter (hFNT1)

## NS(=O)(=O)c1cc(C(=O)O)c(NCc2ccco2)cc1Cl [furosemide]
  Ki: 9.1 ± 1.7 µM
